Some of the results follow.
Molecular target: OsWRKY34 (Oryza sativa, UniProt Q0JBA9 1-250)
Test: protein-binding microarray (RPBM); PBS, 2% BSA, 51.3 ng/ul salmon testes DNA, 50 uM zinc acetate, 200 nM TF, 25 C, 1 h; high values mean tight binding
Conditions: protein: recombinant; tags: N-terminal polyhistidine and DsRed monomer fusion (pET32a); label: CyDye5-dUTP incorporated in the synthesized complementary strand; 3' TTTTT single-stranded linker to array surface; dsDNA, one strand shown
Outline: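 The binding signal for each feature is its fluorescence intensity in arbitrary units. An Axon 4000B scanner was used to read a custom Agilent array that had been made double-stranded with Cy5-dUTP primer extension, blocked with 2% BSA, incubated at 25 °C for 1 h with 200 nM protein in PBS, 2% BSA, salmon testes DNA and 50 µM zinc acetate, and washed. The protein was an N-terminal polyhistidine–DsRed transcription factor fusion from E. coli BL21-CodonPlus, purified on Ni–NTA.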

Chains of the proteins cited; added tags and fusions are not shown.
UniProt Q0JBA9, entry or part of it: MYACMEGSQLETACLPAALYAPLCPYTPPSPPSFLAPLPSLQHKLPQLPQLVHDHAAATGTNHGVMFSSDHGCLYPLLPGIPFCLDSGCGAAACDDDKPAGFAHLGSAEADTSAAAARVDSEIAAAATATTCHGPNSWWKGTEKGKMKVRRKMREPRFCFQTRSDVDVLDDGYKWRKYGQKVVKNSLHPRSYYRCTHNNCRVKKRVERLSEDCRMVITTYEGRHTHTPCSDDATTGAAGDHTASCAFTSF

| Sequence | binding signal |
| --- | --- |
| GGTGCCGGGTAATGATTGTTTTGTGGGCGTGACGGGTGATCGGAGTCACCTAGTGCAG | 8710 fluorescence intensity (a.u.) |
| TACAGTTACTGATTCCATTTTTGGTGGTCAGCTGTCTTCTCGGAGTCACCTAGTGCAG | 8710 fluorescence intensity (a.u.) |
| CGCCCCTTGATTCGCCTCGTTTTTTCTTTTCCCTTTTTTTCGGAGTCACCTAGTGCAG | 9920 fluorescence intensity (a.u.) |
| TCCCACATAGTTTTTTTAATTCTAATGCCTCGTTGCTGCCCGGAGTCACCTAGTGCAG | 9550 fluorescence intensity (a.u.) |
| GCCGTCCCTGCCATTCGCAGGCTTCTCCCCATTGCCTCACCGGAGTCACCTAGTGCAG | 10200 fluorescence intensity (a.u.) |
| TCCTCTTTTTGCTGGCTTTCTGTTGACTGTTATTTTATTTCGGAGTCACCTAGTGCAG | 17100 fluorescence intensity (a.u.) |
| CGAACTCCACTGTGGATTGGCTTTGATCATGTTCTCATACCGGAGTCACCTAGTGCAG | 8110 fluorescence intensity (a.u.) |
| CCGTCGTGCTCGTGCCAAGCCAACTCCTCGTCTTCGGCTCCGGAGTCACCTAGTGCAG | 8300 fluorescence intensity (a.u.) |
| ACATATATAGCGCCCTCACTTTCAAAAGGCCGGCGTTTCTCGGAGTCACCTAGTGCAG | 8080 fluorescence intensity (a.u.) |
| AAGCTATAGCTGTCTCTTTCCTTGCATCTCCTCTCCTCTTCGGAGTCACCTAGTGCAG | 8210 fluorescence intensity (a.u.) |
| GTATCCTTGGCGCCGTTAAAACCTCTAGTACCTCTCTGTCCGGAGTCACCTAGTGCAG | 8260 fluorescence intensity (a.u.) |
| ATGTAGATGTGGTCATGTGGGTGCTATCTGTGTGGGTGATCGGAGTCACCTAGTGCAG | 9360 fluorescence intensity (a.u.) |
| ATCCCTTTCATCTCTCATCTACCTCGCCATGGTCGCACACCGGAGTCACCTAGTGCAG | 9140 fluorescence intensity (a.u.) |
| GTTCAAACTGATGATCCCGTTTCATATGATTCATGACATGCGGAGTCACCTAGTGCAG | 8290 fluorescence intensity (a.u.) |
| ATTTATAGAGGTTGGGTGTGCATGTGTGGTGAGCATATTTCGGAGTCACCTAGTGCAG | 8820 fluorescence intensity (a.u.) |
| TTGACCACCTCCAGCGCCGTGCACACCTCCACCTGCGCGTCGGAGTCACCTAGTGCAG | 8750 fluorescence intensity (a.u.) |
| TATGTCGACCGTATGCGTATACGTATACGTGTATTCCTCTCGGAGTCACCTAGTGCAG | 8030 fluorescence intensity (a.u.) |
| TTCAATCCTTGTGTCAGACATCCCATCATGTTCACAACTTCGGAGTCACCTAGTGCAG | 9190 fluorescence intensity (a.u.) |
| CAAAGAGATAAGAATTGGGCGTACACGTGGGCGGGGCAGACGGAGTCACCTAGTGCAG | 8180 fluorescence intensity (a.u.) |
| TTACACCAATCTGTCCCATTCACTTGTAGACTTGCTTTGCCGGAGTCACCTAGTGCAG | 8260 fluorescence intensity (a.u.) |
| ACACATGCCCAGATAGTTTTCTTTGTCATCTCATTCTGCACGGAGTCACCTAGTGCAG | 9360 fluorescence intensity (a.u.) |

| Sequence | binding signal |
| --- | --- |
| CCTTTGTCTCCAGCCTCCCTCCTACTTCCCTAACGCTGAACGGAGTCACCTAGTGCAG | 8270 fluorescence intensity (a.u.) |
| CCATTCCCTTCTCGTCAGGTCACGCGTCCGAAACCGACCACGGAGTCACCTAGTGCAG | 8060 fluorescence intensity (a.u.) |
| ACCAACTGCCACCGCCGCCGTCGCCGACTGCTCCCATCCTCGGAGTCACCTAGTGCAG | 9010 fluorescence intensity (a.u.) |
| GCTATATTTTTTTTATAAACTTGATCAAATCCAAAGTAGTCGGAGTCACCTAGTGCAG | 9560 fluorescence intensity (a.u.) |
| ATCTGAATGATCTGACCTTAGTTTCTGCTAGTCCTGAGCTCGGAGTCACCTAGTGCAG | 11200 fluorescence intensity (a.u.) |
| ACGGTCAGATTCCTCACCGAATCCGCACTATCCGCCACTACGGAGTCACCTAGTGCAG | 9080 fluorescence intensity (a.u.) |
| CCCATACATATTTTACATACAGTCCTTTAATTAATTTATTCGGAGTCACCTAGTGCAG | 8560 fluorescence intensity (a.u.) |
| TGCTGTGTTTGGTCATATATAATATACTACCCCTACCCTACGGAGTCACCTAGTGCAG | 9490 fluorescence intensity (a.u.) |
| ATCTGCTTGTTTTCTTGTACAGTTTGTTCTGTATGTGAGCCGGAGTCACCTAGTGCAG | 13000 fluorescence intensity (a.u.) |
| ACATCGTTCCAATTTCAACCAGACTTTTATTTTTGACGTGCGGAGTCACCTAGTGCAG | 8460 fluorescence intensity (a.u.) |
| AACTTTTGCTTCCGTTTTAATAGATGCGACTATATTTCACCGGAGTCACCTAGTGCAG | 8740 fluorescence intensity (a.u.) |
| TAGTATTTCTATTTGGACTCTAAACTCATCTTTCAATATTCGGAGTCACCTAGTGCAG | 8500 fluorescence intensity (a.u.) |
| AATTCTTTTGTCGTATTATCCTATCTACTTCCACTTATAACGGAGTCACCTAGTGCAG | 8560 fluorescence intensity (a.u.) |
| TCTTGCGATGTCCCCACCTGTCAGTCTCCGCTCGCTCTCCCGGAGTCACCTAGTGCAG | 9920 fluorescence intensity (a.u.) |
| CAGATGGCTTTTTAGTTTTTACACCGTGTCTGATACTAAACGGAGTCACCTAGTGCAG | 8040 fluorescence intensity (a.u.) |
| CCTCCGCCTCGCGCCGCCACCTCCGCCTCGCGCCGTTGTCCGGAGTCACCTAGTGCAG | 11000 fluorescence intensity (a.u.) |
| GCGCGCCCCATCATCTAGTTATGCTAATTACGCGCGTCTTCGGAGTCACCTAGTGCAG | 13500 fluorescence intensity (a.u.) |
| TTTATCTTTTCGATGTGTGTTTATAGTTGGATTACAGTATCGGAGTCACCTAGTGCAG | 8110 fluorescence intensity (a.u.) |
| TGCTTTAAGCCTATATTTAATATTTCATACATGTGTTCAACGGAGTCACCTAGTGCAG | 8220 fluorescence intensity (a.u.) |
| TGCTGCTCTCGCGCGCTGTGCGGTTGTCACACACACTTTTCGGAGTCACCTAGTGCAG | 10300 fluorescence intensity (a.u.) |
| TTTCCTAAGCCTATCTTTCTCTTCTTGATCTCTGCTGAATCGGAGTCACCTAGTGCAG | 8620 fluorescence intensity (a.u.) |

As entered above:
Under binding signal, AATTCTTTTGTCGTATTATCCTATCTACTTCCACTTATAACGGAGTCACCTAGTGCAG has 8560 fluorescence intensity (a.u.)
Under binding signal, TGCTGCTCTCGCGCGCTGTGCGGTTGTCACACACACTTTTCGGAGTCACCTAGTGCAG has 10300 fluorescence intensity (a.u.)
